Source: the supplement of paper PMC10849652
This is one part of the list.

The chains behind the UniProt entries cited, without tags or fusion partners. Where a name states a change or a piece, a line headed by the entry shows the natural chain unless it says otherwise.
UniProt Q93009, whole entry, looked up: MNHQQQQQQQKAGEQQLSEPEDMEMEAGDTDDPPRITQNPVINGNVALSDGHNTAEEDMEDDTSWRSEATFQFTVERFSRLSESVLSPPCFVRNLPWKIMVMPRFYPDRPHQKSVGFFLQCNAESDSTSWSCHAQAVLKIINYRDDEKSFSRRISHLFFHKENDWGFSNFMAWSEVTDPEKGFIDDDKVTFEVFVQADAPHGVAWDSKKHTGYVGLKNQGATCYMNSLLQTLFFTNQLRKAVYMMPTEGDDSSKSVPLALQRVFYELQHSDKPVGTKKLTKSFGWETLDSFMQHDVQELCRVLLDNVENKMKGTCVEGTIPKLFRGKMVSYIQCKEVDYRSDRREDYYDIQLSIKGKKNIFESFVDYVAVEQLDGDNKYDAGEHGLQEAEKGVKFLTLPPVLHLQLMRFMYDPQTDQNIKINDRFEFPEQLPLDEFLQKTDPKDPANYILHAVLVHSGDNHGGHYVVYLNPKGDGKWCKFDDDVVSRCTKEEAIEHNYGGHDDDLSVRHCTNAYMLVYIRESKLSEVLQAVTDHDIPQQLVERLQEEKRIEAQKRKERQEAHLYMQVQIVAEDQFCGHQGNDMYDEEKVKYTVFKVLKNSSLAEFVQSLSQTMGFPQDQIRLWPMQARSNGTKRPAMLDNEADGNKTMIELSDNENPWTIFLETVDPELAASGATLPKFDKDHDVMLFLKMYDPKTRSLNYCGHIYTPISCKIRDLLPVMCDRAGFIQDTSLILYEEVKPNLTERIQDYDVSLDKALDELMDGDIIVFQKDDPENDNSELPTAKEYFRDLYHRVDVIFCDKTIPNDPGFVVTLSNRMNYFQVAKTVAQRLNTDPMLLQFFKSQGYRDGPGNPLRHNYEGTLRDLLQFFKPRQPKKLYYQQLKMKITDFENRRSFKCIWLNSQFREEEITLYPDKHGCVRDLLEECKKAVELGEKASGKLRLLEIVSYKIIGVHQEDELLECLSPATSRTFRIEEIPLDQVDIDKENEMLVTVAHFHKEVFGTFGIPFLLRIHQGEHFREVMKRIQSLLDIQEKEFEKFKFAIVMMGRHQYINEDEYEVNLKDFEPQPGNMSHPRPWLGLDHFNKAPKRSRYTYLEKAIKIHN
UniProt P61960, whole entry, looked up: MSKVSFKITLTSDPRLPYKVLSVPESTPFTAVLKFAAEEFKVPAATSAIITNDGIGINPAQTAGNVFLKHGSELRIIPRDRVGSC
UniProt Q8NFA0: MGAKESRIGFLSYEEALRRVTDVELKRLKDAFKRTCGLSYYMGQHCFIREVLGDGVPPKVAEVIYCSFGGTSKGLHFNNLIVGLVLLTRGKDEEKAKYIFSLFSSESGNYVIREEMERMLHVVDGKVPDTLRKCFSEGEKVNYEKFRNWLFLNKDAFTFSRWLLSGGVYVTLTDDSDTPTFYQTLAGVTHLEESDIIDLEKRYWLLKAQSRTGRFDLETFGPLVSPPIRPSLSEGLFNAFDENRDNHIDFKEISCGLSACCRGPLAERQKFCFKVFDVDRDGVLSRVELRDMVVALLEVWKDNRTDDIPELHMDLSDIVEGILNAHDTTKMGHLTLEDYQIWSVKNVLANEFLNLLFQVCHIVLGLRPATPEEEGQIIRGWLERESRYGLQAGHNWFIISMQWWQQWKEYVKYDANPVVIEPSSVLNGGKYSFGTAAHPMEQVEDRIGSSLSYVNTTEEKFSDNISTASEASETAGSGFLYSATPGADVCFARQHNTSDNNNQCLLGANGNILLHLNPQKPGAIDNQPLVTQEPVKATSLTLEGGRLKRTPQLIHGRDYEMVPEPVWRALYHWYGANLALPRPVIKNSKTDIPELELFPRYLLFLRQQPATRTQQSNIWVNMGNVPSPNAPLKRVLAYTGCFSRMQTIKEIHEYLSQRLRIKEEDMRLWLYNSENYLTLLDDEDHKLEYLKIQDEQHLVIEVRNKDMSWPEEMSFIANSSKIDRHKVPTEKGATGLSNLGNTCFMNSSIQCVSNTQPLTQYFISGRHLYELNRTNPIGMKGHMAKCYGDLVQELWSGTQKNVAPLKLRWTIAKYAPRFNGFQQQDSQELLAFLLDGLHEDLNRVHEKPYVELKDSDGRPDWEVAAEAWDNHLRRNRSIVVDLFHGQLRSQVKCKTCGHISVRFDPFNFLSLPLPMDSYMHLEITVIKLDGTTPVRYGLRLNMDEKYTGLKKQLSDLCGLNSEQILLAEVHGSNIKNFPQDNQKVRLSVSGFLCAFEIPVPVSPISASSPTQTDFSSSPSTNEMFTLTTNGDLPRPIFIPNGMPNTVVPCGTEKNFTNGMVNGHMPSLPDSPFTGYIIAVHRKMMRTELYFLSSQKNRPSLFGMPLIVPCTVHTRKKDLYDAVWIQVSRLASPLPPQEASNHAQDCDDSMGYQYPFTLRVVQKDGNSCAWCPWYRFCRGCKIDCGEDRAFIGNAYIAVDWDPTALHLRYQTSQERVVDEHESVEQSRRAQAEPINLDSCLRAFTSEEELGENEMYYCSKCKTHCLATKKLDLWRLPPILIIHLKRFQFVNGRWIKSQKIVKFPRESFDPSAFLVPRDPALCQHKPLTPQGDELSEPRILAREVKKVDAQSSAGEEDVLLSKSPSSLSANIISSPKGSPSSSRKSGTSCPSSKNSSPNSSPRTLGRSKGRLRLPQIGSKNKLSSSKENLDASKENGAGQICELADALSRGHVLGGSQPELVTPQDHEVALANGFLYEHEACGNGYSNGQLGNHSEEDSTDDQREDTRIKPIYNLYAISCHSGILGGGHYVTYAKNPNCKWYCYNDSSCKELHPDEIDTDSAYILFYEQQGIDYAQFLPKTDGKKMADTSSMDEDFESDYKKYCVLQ
UniProt Q9C0B0: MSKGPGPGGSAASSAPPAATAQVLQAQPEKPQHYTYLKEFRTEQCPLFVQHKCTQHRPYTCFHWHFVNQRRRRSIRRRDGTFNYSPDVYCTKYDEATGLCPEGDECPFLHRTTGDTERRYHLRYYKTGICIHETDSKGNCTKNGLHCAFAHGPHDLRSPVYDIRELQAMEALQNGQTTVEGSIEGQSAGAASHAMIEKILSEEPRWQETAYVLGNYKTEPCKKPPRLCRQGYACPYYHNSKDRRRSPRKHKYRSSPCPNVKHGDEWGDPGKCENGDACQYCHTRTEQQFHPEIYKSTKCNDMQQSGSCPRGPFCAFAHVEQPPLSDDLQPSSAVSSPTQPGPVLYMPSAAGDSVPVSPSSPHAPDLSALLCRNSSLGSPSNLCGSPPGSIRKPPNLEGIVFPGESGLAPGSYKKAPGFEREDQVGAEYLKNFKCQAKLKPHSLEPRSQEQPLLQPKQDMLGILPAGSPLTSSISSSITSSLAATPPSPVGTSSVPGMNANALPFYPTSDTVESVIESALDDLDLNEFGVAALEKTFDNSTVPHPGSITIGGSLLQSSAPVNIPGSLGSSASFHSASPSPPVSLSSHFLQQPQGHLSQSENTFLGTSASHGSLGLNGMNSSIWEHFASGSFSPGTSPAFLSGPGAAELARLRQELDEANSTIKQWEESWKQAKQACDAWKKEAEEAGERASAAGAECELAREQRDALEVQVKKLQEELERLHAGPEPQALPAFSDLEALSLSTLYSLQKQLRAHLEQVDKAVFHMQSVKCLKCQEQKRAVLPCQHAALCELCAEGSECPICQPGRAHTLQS
UniProt P50552: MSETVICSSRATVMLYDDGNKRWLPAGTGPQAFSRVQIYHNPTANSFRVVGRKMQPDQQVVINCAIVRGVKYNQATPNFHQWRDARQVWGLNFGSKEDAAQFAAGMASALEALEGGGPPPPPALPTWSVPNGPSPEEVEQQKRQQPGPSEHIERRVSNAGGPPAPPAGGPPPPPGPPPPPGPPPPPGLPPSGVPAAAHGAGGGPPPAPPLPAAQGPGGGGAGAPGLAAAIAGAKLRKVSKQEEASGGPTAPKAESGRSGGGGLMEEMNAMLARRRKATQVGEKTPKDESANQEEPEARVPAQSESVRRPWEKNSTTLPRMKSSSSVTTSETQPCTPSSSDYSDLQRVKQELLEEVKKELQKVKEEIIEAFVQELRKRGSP
UniProt A6NIH7: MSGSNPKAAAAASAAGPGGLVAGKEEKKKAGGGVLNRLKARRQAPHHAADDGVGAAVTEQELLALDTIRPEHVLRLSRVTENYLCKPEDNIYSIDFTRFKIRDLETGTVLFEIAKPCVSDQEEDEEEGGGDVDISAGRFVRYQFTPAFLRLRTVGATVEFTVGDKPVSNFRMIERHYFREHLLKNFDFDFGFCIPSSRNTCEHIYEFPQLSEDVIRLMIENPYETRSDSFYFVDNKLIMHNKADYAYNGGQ
UniProt Q92900: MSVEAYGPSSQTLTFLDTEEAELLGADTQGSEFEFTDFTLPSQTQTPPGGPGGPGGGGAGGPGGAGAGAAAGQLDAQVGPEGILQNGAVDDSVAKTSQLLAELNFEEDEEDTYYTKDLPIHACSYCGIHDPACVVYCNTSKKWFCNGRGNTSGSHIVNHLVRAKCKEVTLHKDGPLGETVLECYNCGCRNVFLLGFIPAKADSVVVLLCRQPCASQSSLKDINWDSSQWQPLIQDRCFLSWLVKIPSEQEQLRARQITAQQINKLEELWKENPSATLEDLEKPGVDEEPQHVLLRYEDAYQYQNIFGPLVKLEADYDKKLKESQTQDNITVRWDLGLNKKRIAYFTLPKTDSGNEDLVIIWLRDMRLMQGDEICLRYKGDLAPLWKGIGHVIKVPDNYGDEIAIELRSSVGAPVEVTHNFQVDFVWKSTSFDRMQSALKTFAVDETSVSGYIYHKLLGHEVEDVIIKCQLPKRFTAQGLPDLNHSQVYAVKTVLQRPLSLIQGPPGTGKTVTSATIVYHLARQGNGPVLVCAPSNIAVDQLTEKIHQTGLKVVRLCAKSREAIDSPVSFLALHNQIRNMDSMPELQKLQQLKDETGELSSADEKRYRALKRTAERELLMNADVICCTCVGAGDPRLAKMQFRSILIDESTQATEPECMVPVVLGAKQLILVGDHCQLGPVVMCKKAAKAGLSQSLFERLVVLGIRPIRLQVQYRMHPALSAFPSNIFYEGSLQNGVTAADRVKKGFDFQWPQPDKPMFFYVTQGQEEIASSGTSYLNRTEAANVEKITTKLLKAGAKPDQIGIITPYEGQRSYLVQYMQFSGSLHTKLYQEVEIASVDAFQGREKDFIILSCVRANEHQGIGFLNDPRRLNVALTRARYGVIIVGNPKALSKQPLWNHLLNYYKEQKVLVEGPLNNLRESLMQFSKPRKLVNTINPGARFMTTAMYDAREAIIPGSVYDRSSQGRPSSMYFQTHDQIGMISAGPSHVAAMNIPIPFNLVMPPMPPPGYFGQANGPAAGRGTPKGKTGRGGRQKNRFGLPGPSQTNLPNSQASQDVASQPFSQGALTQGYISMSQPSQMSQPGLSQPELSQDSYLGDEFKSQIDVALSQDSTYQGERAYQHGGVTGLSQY
UniProt Q9P0L0: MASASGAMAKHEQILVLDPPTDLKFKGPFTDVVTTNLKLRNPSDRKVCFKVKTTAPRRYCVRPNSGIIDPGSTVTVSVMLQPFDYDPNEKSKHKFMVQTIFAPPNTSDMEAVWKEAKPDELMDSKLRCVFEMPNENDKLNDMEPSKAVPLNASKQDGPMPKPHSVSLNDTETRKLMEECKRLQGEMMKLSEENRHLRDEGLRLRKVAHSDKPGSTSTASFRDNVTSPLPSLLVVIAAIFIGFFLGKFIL
UniProt Q9NVA1: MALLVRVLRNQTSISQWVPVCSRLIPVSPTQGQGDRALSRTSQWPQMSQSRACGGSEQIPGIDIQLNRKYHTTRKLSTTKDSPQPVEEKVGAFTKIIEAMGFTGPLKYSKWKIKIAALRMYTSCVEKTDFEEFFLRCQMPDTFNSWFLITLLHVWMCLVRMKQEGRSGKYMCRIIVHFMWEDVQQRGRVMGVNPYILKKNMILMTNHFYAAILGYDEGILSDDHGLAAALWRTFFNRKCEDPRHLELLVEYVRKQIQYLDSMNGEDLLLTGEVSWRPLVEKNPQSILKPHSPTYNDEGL
UniProt Q53GS9: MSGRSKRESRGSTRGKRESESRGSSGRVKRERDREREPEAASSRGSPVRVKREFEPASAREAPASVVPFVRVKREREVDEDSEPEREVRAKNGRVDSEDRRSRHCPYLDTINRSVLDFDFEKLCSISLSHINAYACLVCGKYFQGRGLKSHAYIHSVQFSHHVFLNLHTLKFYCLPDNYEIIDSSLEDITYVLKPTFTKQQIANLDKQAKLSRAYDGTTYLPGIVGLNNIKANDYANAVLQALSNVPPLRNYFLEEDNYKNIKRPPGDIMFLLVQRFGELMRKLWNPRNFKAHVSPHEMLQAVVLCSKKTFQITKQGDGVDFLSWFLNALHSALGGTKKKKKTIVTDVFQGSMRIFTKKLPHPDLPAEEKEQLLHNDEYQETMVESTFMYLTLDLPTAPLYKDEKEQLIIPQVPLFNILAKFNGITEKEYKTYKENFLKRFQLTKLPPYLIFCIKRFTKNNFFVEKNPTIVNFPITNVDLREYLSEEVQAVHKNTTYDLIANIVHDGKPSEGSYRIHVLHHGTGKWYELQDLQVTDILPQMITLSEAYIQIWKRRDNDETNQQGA

Key:
Experiment in all cases: log2 fold change, soluble protein after heating vs DMSO (PISA); higher = thermal stabilisation; K562 lysate, 10 uM; active = over 0.2 and 3.5 SD of the protein, either way, in both replicates (recomputed)
vemurafenib = compound: CCCS(=O)(=O)Nc1ccc(F)c(C(=O)c2c[nH]c3ncc(-c4ccc(Cl)cc4)cc23)c1F [vemurafenib]
Outline: (§1)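 Following dounce homogenisation of K562 pellets in PBS pH 7.4 with 1 mM MgCl2, crude extract at 1 mg/mL protein was incubated for 30 min with 10 μM compound. Aliquots were then heated for 3 min over 48°C-58°C and pooled, NP-40 was added to 0.5% at 4°C, and soluble protein was recovered as the supernatant at 21,000xg for 90 min. Channel-sum-equalised TMTpro 16plex LC-MS/MS quantified this protein. Each value, from duplicates, is a log-two fold change in thermal stability relative to solvent controls.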

[1] = compound: CCCS(=O)(=O)Nc1ccc(F)c(C(=O)c2c[nH]c3ncc(Cl)cc23)c1F
Outline: as §1

barasertib = compound: CCN(CCCOc1ccc2c(Nc3cc(CC(=O)Nc4cccc(F)c4)[nH]n3)ncnc2c1)CCOP(=O)(O)O [barasertib]
Outline: as §1

[2] = compound: CC[C@@H]1C(=O)N(C)c2cnc(Nc3ccc(C(=O)NC4CCN(C)CC4)cc3OC)nc2N1C1CCCC1
Outline: as §1

volasertib = compound: CC[C@@H]1C(=O)N(C)c2cnc(Nc3ccc(C(=O)N[C@H]4CC[C@H](N5CCN(CC6CC6)CC5)CC4)cc3OC)nc2N1C(C)C [volasertib]
Outline: as §1

[3] = compound: CCn1c(C(=O)N(C2CC2)C2CC2)cc2c3c(ncn3C)c(Nc3cc(C)n(C)n3)nc21
Outline: as §1

[4] = compound: CCn1cc(-c2ccnc3[nH]c(-c4cccc(CN(C)C)c4)cc23)c(-c2ccc(NC(=O)N(C)C)cc2)n1
Outline: as §1

[5] = compound: CN1CCC(CNc2ccc3ncc(-c4cccc(OC(F)(F)F)c4)n3n2)CC1
Outline: as §1

saracatinib = compound: CN1CCN(CCOc2cc(OC3CCOCC3)c3c(Nc4c(Cl)ccc5c4OCO5)ncnc3c2)CC1 [saracatinib]
Outline: as §1

sotrastaurin = compound: CN1CCN(c2nc(C3=C(c4c[nH]c5ccccc45)C(=O)NC3=O)c3ccccc3n2)CC1 [sotrastaurin]
Outline: as §1

alvocidib = compound: CN1CC[C@H](c2c(O)cc(O)c3c(=O)cc(-c4ccccc4Cl)oc23)[C@H](O)C1 [alvocidib]
Outline: as §1

Tubastatin A = compound: CN1CCc2c(c3ccccc3n2Cc2ccc(C(=O)NO)cc2)C1 [Tubastatin A]
Outline: as §1

[6] = compound: CNC(=O)C1=CC=CC=C1NC2=NC(=NC=C2Cl)NC3=C(C=C(C=C3)N4CCOCC4)OC
Outline: as §1

defactinib = compound: CNC(=O)c1ccc(Nc2ncc(C(F)(F)F)c(NCc3nccnc3N(C)S(C)(=O)=O)n2)cc1 [defactinib]
Outline: as §1

[7] = compound: CNc1nc(-c2ccc3c(N)n[nH]c3c2)cc(N2C[C@@H](C(=O)NC3CCCCC3)CC[C@H]2C)n1
Outline: as §1

encorafenib = compound: COC(=O)N[C@@H](C)CNc1nccc(-c2cn(C(C)C)nc2-c2cc(Cl)cc(NS(C)(=O)=O)c2F)n1 [encorafenib]
Outline: as §1

[8] = compound: COC(=O)[C@H](CCSC)NC(=O)C1=C(C=C(C=C1)NC[C@H](CS)N)C2=CC=CC=C2
Outline: as §1

alisertib = compound: COc1cc(Nc2ncc3c(n2)-c2ccc(Cl)cc2C(c2c(F)cccc2OC)=NC3)ccc1C(=O)O [alisertib]
Outline: as §1

[9] = compound: COc1cc2nc(-c3cc(F)ccc3O)nc(N[C@@H]3CNC[C@H]3C(C)(C)O)c2cc1OC
Outline: as §1

gefitinib = compound: COc1cc2ncnc(Nc3ccc(F)c(Cl)c3)c2cc1OCCCN1CCOCC1 [gefitinib]
Outline: as §1

Measured: log2 fold change

USP7 (UniProt Q93009)
inactive: vemurafenib 0.016 | [1] 0.01 | barasertib 0.028 | [2] -0.065 | volasertib -0.039 | [3] 0.032 | [4] -0.09 | [5] 0.024 | saracatinib -0.013 | sotrastaurin 0.007 | alvocidib -0.007 | Tubastatin A -0.097 | [6] 0.005 | defactinib -0.004 | [7] -0.081 | encorafenib -0.001 | [8] 0.085 | alisertib 0.005 | [9] -0.01 | gefitinib 0.01

VCPIP1 (UniProt Q96JH7)
inactive: vemurafenib 0.008 | [1] -0.04 | barasertib 0.051 | [2] -0.006 | volasertib -0.047 | [3] 0.011 | [4] -0.12 | [5] 0.049 | saracatinib -0.03 | sotrastaurin 0.035 | alvocidib -0.049 | Tubastatin A -0.026 | [6] -0.01 | defactinib 0.022 | [7] 0.113 | encorafenib 0.005 | [8] 0.141 | alisertib 0.003 | [9] -0.006 | gefitinib -0.04

VDAC1 (UniProt P21796)
inactive: vemurafenib 0.003 | [1] -0.005 | barasertib -0.034 | [2] 0.056 | volasertib 0.038 | [3] -0.023 | [4] -0.002 | [5] 0.024 | saracatinib 0.011 | sotrastaurin 0.012 | alvocidib 0.017 | Tubastatin A 0.042 | [6] 0 | defactinib -0.007 | [7] 0.044 | encorafenib -0.003 | [8] -0.041 | alisertib -0.011 | [9] 0.019 | gefitinib 0.005

VCP (UniProt P55072)
inactive: vemurafenib -0.004 | [1] 0.011 | barasertib -0.042 | [2] 0.037 | volasertib 0.026 | [3] -0.015 | [4] 0.076 | [5] -0.013 | saracatinib 0.021 | sotrastaurin -0.015 | alvocidib 0.013 | Tubastatin A 0.045 | [6] -0.002 | defactinib -0.013 | [7] 0.027 | encorafenib -0.026 | [8] -0.037 | alisertib -0.002 | [9] -0.007 | gefitinib -0.007

UFM1 (UniProt P61960)
inactive: vemurafenib -0.249 | [1] -0.035 | barasertib 0.039 | [2] 0.044 | volasertib 0.047 | [3] 0.014 | [4] 0.491 | [5] -0.338 | saracatinib 0.016 | sotrastaurin 0.028 | alvocidib 0.253 | Tubastatin A 0.102 | [6] 0.037 | defactinib 0.136 | [7] 0.088 | encorafenib 0.023 | [8] -0.076 | alisertib 0.038 | [9] -0.08 | gefitinib -0.116

USP32 (UniProt Q8NFA0)
inactive: vemurafenib 0.066 | [1] 0.058 | barasertib 0.166 | [2] 0.001 | volasertib -0.072 | [3] -0.004 | [4] 0.078 | [5] -0.001 | saracatinib 0.02 | sotrastaurin 0.003 | alvocidib -0.075 | Tubastatin A 0.034 | [6] 0.019 | defactinib 0.1 | [7] -0.025 | encorafenib 0.001 | [8] 0.109 | alisertib -0.065 | [9] 0.022 | gefitinib 0.048

UNK (UniProt Q9C0B0)
inactive: vemurafenib -0.052 | [1] 0.012 | barasertib -0.007 | [2] -0.001 | volasertib -0.018 | [3] -0.137 | [4] -0.072 | [5] 0.036 | saracatinib 0 | sotrastaurin -0.009 | alvocidib -0.096 | Tubastatin A 0.047 | [6] 0.008 | defactinib -0.007 | [7] -0.014 | encorafenib 0.004 | [8] -0.04 | alisertib 0 | [9] 0.004 | gefitinib -0.011

Quoted from above (2 entries):
USP7 (UniProt Q93009)
inactive: vemurafenib 0.016 | [1] 0.01 | barasertib 0.028 | [2] -0.065 | volasertib -0.039 | [3] 0.032 | [4] -0.09 | [5] 0.024 | saracatinib -0.013 | sotrastaurin 0.007 | alvocidib -0.007 | Tubastatin A -0.097 | [6] 0.005 | defactinib -0.004 | [7] -0.081 | encorafenib -0.001 | [8] 0.085 | alisertib 0.005 | [9] -0.01 | gefitinib 0.01

VCPIP1 (UniProt Q96JH7)
inactive: vemurafenib 0.008 | [1] -0.04 | barasertib 0.051 | [2] -0.006 | volasertib -0.047 | [3] 0.011 | [4] -0.12 | [5] 0.049 | saracatinib -0.03 | sotrastaurin 0.035 | alvocidib -0.049 | Tubastatin A -0.026 | [6] -0.01 | defactinib 0.022 | [7] 0.113 | encorafenib 0.005 | [8] 0.141 | alisertib 0.003 | [9] -0.006 | gefitinib -0.04

Additional results follow:

VASP (UniProt P50552)
inactive: vemurafenib -0.012 | [1] -0.011 | barasertib -0.069 | [2] -0.022 | volasertib -0.008 | [3] 0.009 | [4] 0.006 | [5] -0.009 | saracatinib 0.007 | sotrastaurin -0.004 | alvocidib 0.031 | Tubastatin A 0.022 | [6] -0.017 | defactinib 0.013 | [7] -0.003 | encorafenib -0.033 | [8] -0.007 | alisertib 0.018 | [9] 0.009 | gefitinib 0.019

UNC119B (UniProt A6NIH7)
inactive: vemurafenib 0.079 | [1] 0.013 | barasertib 0.038 | [2] 0.171 | volasertib 0.001 | [3] -0.018 | [4] -0.1 | [5] 0.054 | saracatinib -0.048 | sotrastaurin 0.001 | alvocidib -0.016 | Tubastatin A 0.217 | [6] -0.033 | defactinib -0.09 | [7] 0.08 | encorafenib 0.021 | [8] 0.011 | alisertib -0.077 | [9] -0.041 | gefitinib -0.065

VARS2, A0A0G2JL52
inactive: vemurafenib -0.024 | [1] 0.037 | barasertib 0.003 | [2] -0.018 | volasertib -0.027 | [3] -0.022 | [4] -0.137 | [5] 0.039 | saracatinib 0.016 | sotrastaurin 0.03 | alvocidib -0.029 | Tubastatin A 0.03 | [6] 0.003 | defactinib 0.009 | [7] -0.028 | encorafenib -0.02 | [8] -0.175 | alisertib 0.022 | [9] 0.009 | gefitinib 0.029

UPF1 (UniProt Q92900)
inactive: vemurafenib -0.004 | [1] 0.015 | barasertib -0.01 | [2] 0.017 | volasertib -0.006 | [3] -0.007 | [4] 0.02 | [5] 0.007 | saracatinib -0.019 | sotrastaurin -0.023 | alvocidib -0.005 | Tubastatin A -0.012 | [6] 0.011 | defactinib 0.008 | [7] 0.024 | encorafenib -0.014 | [8] 0.026 | alisertib 0.008 | [9] -0.001 | gefitinib -0.002

VAPA isoform 2 (UniProt Q9P0L0)
inactive: vemurafenib 0.004 | [1] -0.017 | barasertib -0.037 | [2] 0.078 | volasertib 0.025 | [3] -0.004 | [4] -0.194 | [5] 0.166 | saracatinib -0.02 | sotrastaurin 0.008 | alvocidib -0.094 | Tubastatin A 0.044 | [6] -0.021 | defactinib -0.032 | [7] -0.001 | encorafenib 0.01 | [8] -0.184 | alisertib 0.035 | [9] 0.029 | gefitinib 0.021

UQCC1 (UniProt Q9NVA1)
inactive: vemurafenib -0.05 | [1] 0.008 | barasertib 0.023 | [2] 0.01 | volasertib 0.03 | [3] 0.026 | [4] 0 | [5] 0.034 | saracatinib -0.006 | sotrastaurin -0.006 | alvocidib -0.018 | Tubastatin A 0.02 | [6] -0.012 | defactinib 0.036 | [7] -0.052 | encorafenib -0.007 | [8] 0.071 | alisertib -0.054 | [9] -0.017 | gefitinib -0.011

URI1 (UniProt O94763)
inactive: vemurafenib 0.051 | [1] 0.015 | barasertib -0.005 | [2] 0.048 | volasertib 0.002 | [3] 0.018 | [4] 0.061 | [5] 0 | saracatinib 0.022 | sotrastaurin -0.007 | alvocidib -0.017 | Tubastatin A -0.006 | [6] 0.051 | defactinib -0.089 | [7] -0.006 | encorafenib 0.061 | [8] 0.011 | alisertib 0.025 | [9] 0.002 | gefitinib 0.007

UTP14A (UniProt Q9BVJ6)
inactive: vemurafenib 0.083 | [1] 0.009 | barasertib 0.012 | [2] 0.043 | volasertib 0.004 | [3] -0.004 | [4] 0.011 | [5] -0.046 | saracatinib 0.044 | sotrastaurin 0.011 | alvocidib -0.024 | Tubastatin A 0.022 | [6] 0.031 | defactinib -0.018 | [7] -0.001 | encorafenib -0.033 | [8] 0.021 | alisertib -0.011 | [9] 0.001 | gefitinib 0.016

USP39 (UniProt Q53GS9)
inactive: vemurafenib 0.017 | [1] 0.017 | barasertib -0.005 | [2] -0.024 | volasertib 0.004 | [3] 0.01 | [4] -0.011 | [5] -0.049 | saracatinib 0.004 | sotrastaurin -0.012 | alvocidib -0.012 | Tubastatin A -0.012 | [6] -0.019 | defactinib -0.021 | [7] -0.03 | encorafenib 0.008 | [8] -0.09 | alisertib 0.009 | [9] -0.02 | gefitinib 0.016
